The record followed here is the supplement of paper PMC10735217.

Structures can show the parent of a compound that is named as a salt. The list shows a part of the results. Repeats in this data set agree poorly, so a single value says little.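 In a drug-repurposing library screen, luminescence reads luciferase driven by eight TEAD-binding elements, stably integrated into human kidney-derived cells. Compounds scoring over five robust Z scores above the plate mean are called hits.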

In this experiment the test system is HEK293A TEAD-LUC reporter. Kind of experiment: TEAD-luciferase reporter activity (YAP activation), robust Z score vs plate; higher = stronger YAP/TEAD activation. The settings on record: 24 h. (In a reporter assay the amount or activity of a reporter protein is the signal.)

With `CC1(c2ccccc2)OC(C(=O)O)=CC1=O` (stereo not given) [Acifran], the TEAD-luciferase reporter activity by setting is: (compound concentration: 200 nM) inactive: -1.13; (compound concentration: 2 uM) inactive: 1.87; (compound concentration: 10 uM) inactive: 0.735.

On to `C[C@]12C=CC(=O)C=C1CC[C@H]1[C@@H]3C[C@@H](O)[C@](O)(C(=O)CO)[C@@]3(C)C[C@H](O)[C@@]12F` [triamcinolone, Allergan], for which the TEAD-luciferase reporter activity runs as follows: (compound concentration: 200 nM) inactive: 1.05; (compound concentration: 2 uM) inactive: 1.29; (compound concentration: 10 uM) inactive: 1.03.

As to `O=C(NCCN1CCCC1)c1cc(-c2ccc(CN3CCOCC3)cc2)nc2ccc(F)cc12`, the TEAD-luciferase reporter activity runs as follows: (compound concentration: 200 nM) inactive: -0.787; (compound concentration: 2 uM) inactive: -0.0373; (compound concentration: 10 uM) inactive: 2.2.

As to `COc1ccccc1C(=O)NCCc1ccc(S(=O)(=O)NC(=O)NC2CCCC2)cc1`, the TEAD-luciferase reporter activity is, setting by setting: (compound concentration: 200 nM) inactive: -1.36; (compound concentration: 2 uM) inactive: -0.0823; (compound concentration: 10 uM) inactive: 0.0229.

For the molecule `Cc1nc([N+](=O)[O-])cn1-c1ccccc1`, the TEAD-luciferase reporter activity was inactive: -1.79 (compound concentration: 200 nM), inactive: -0.389 (compound concentration: 2 uM) and inactive: -0.431 (compound concentration: 10 uM).

On to `CC(C)(C)N1CCN[C@@H](C(=O)N2CCN(C(=O)Nc3ccc(Cl)c(F)c3)CC2)C1`, for which the TEAD-luciferase reporter activity by setting is: (compound concentration: 200 nM) inactive: -0.642; (compound concentration: 2 uM) inactive: 2.6; (compound concentration: 10 uM) inactive: 0.628.

In the case of `CCc1cc(/C(C)=N/OCc2ccc(C3CCCCC3)c(C(F)(F)F)c2)ccc1CN1CC(C(=O)O)C1` [BAF312 (Siponimod)], the TEAD-luciferase reporter activity is, setting by setting: (compound concentration: 200 nM) inactive: -1.61; (compound concentration: 10 uM) inactive: 2.52.

As to `CCc1cc(/C(C)=N/OCc2ccc(C3CCCCC3)c(C(F)(F)F)c2)ccc1CN1CC(C(=O)O)C1` [siponimod], for the setting “compound concentration: 2 uM”, the TEAD-luciferase reporter activity was inactive: -1.16.

`O=C(O)CCC/C=C\C[C@H]1C(=O)C=C[C@@H]1/C=C/[C@@H](O)CCc1ccccc1` [17-phenyl trinor PGA2]: the TEAD-luciferase reporter activity reads like this: (compound concentration: 200 nM) inactive: -0.636; (compound concentration: 2 uM) inactive: -2.38; (compound concentration: 10 uM) inactive: 4.19.

For `Oc1cc2c3c(c1)c1cc4c(cc1c[n+]3CC2)OCO4` [Lycobetaine chloride], the TEAD-luciferase reporter activity runs as follows: (compound concentration: 200 nM) inactive: -1.29; (compound concentration: 2 uM) inactive: 0.752; (compound concentration: 10 uM) inactive: 1.3.

Take `CS(=O)(=O)NC(=O)C(c1ccc(OCc2ccc3ccccc3n2)cc1)C1CCCCCC1` (stereo not given): the TEAD-luciferase reporter activity (compound concentration: 200 nM) is inactive: -0.232, the TEAD-luciferase reporter activity (compound concentration: 2 uM) was inactive: -2.05 and the TEAD-luciferase reporter activity (compound concentration: 10 uM) was inactive: -0.0176.

For the molecule `C[C@H](c1ccc(-c2ccccc2)c(F)c1)c1cc(/N=C(\N)N2CCOCC2)on1`, the TEAD-luciferase reporter activity reads like this: (compound concentration: 200 nM) inactive: -0.854; (compound concentration: 2 uM) inactive: 1.97; (compound concentration: 10 uM) inactive: 1.34.

Regarding `Cc1nn(C)cc1CN1CCC(c2ccc(C(=O)Nc3ccccc3N)cc2)CC1`, the TEAD-luciferase reporter activity runs as follows: (compound concentration: 200 nM) active: 7.5; (compound concentration: 2 uM) inactive: 2.42; (compound concentration: 10 uM) active: 10.1.

As for `CC(C)(C)S(=O)(=O)N[C@H]1CC[C@H](C(=O)Nc2ccc(C(F)(F)F)cn2)CC1` [velneperit], the TEAD-luciferase reporter activity (compound concentration: 200 nM) is inactive: -0.858, the TEAD-luciferase reporter activity (compound concentration: 2 uM) is inactive: -1.43 and the TEAD-luciferase reporter activity (compound concentration: 10 uM) was inactive: 1.16.

Turning to `Cc1c(C(=O)N(C)C2CCCCC2)sc2nc3ccc(N)cc3n12`, the TEAD-luciferase reporter activity is, setting by setting: (compound concentration: 200 nM) inactive: -1.31; (compound concentration: 2 uM) inactive: 2.03; (compound concentration: 10 uM) inactive: -0.0864.

Take `CC(=O)c1cccc(NC(=O)c2nnn[nH]2)c1O`: the TEAD-luciferase reporter activity was inactive: 0.805 (compound concentration: 200 nM), inactive: -1.86 (compound concentration: 2 uM) and inactive: -1.59 (compound concentration: 10 uM).

As to `CCCN(CCc1cccs1)[C@H]1CCc2c(O)cccc2C1`, the TEAD-luciferase reporter activity (compound concentration: 200 nM) is inactive: -0.901, the TEAD-luciferase reporter activity (compound concentration: 2 uM) is inactive: -1.18 and the TEAD-luciferase reporter activity (compound concentration: 10 uM) was inactive: -0.123.

Turning to `c1csc(Cc2ccccc2OCC2CNCCO2)c1` (stereo not given) [Teniloxazine maleate], the TEAD-luciferase reporter activity was inactive: -0.0268 (compound concentration: 200 nM), inactive: 3.89 (compound concentration: 2 uM) and inactive: 1.78 (compound concentration: 10 uM).

Take `CC[C@H](C)[C@@H]1NC(=O)[C@H](Cc2ccccc2)NC(=O)[C@@H](N)CSSC[C@@H](C(=O)N2CCC[C@H]2C(=O)N[C@@H](CCCNC(C)C)C(=O)NCC(N)=O)NC(=O)[C@H](CC(N)=O)NC(=O)[C@H](CCCC(N)=O)NC1=O` [selepressin]: the TEAD-luciferase reporter activity by setting is: (compound concentration: 200 nM) inactive: 0.175; (compound concentration: 2 uM) inactive: -0.372; (compound concentration: 10 uM) inactive: 0.377.

Take `c1ccc2c(c1)CC[C@H](CNCCCNC1=NCCCN1)O2`: the TEAD-luciferase reporter activity was inactive: -1.59 (compound concentration: 200 nM), inactive: -1.37 (compound concentration: 2 uM) and inactive: 2.83 (compound concentration: 10 uM).

With `CCCc1ccc(NS(=O)(=O)Cc2ccccc2)c(=O)n1CC(=O)NCc1ccc(C)nc1`, the TEAD-luciferase reporter activity runs as follows: (compound concentration: 200 nM) inactive: -1.38; (compound concentration: 2 uM) inactive: -1.2; (compound concentration: 10 uM) inactive: -0.717.

On to `CNC(=O)c1ccc(N2C(=S)N(c3cnc(C#N)c(C(F)(F)F)c3)C(=O)C23CCC3)cc1F` [Apalutamide], for which the TEAD-luciferase reporter activity was inactive: -1.47 (compound concentration: 200 nM), inactive: -1.03 (compound concentration: 2 uM) and inactive: 0.196 (compound concentration: 10 uM).

Consider `Nc1ncnc2nc(-c3ccc(N4CCOCC4)nc3)cc(-c3cccc(Br)c3)c12` [Adenosine Kinase Inhibitor], for which the TEAD-luciferase reporter activity (compound concentration: 200 nM) was inactive: -0.184 and the TEAD-luciferase reporter activity (compound concentration: 10 uM) is inactive: 1.48.

On to `Nc1ncnc2nc(-c3ccc(N4CCOCC4)nc3)cc(-c3cccc(Br)c3)c12`, for which the TEAD-luciferase reporter activity (compound concentration: 2 uM) was inactive: -0.879.

Take `CC1(C)O[C@@H]2C[C@H]3[C@@H]4CCC5=CC(=O)C=C[C@]5(C)[C@H]4[C@@H](O)C[C@]3(C)[C@]2(C(=O)CO)O1` [desonide HydroGel]: the TEAD-luciferase reporter activity (compound concentration: 2 uM) was inactive: 0.122.

For the molecule `CC1(C)O[C@@H]2C[C@H]3[C@@H]4CCC5=CC(=O)C=C[C@]5(C)[C@H]4[C@@H](O)C[C@]3(C)[C@]2(C(=O)CO)O1` [desonide HydroGel, SkinMedica], the TEAD-luciferase reporter activity is inactive: -1.15 (compound concentration: 200 nM) and inactive: 0.947 (compound concentration: 10 uM).

On to `COc1ccc([C@H](Cc2ccncc2)c2ccccc2)cc1OC1CCCC1`, for which the TEAD-luciferase reporter activity reads like this: (compound concentration: 200 nM) inactive: -0.492; (compound concentration: 2 uM) inactive: 0.0581; (compound concentration: 10 uM) inactive: -0.707.

As for `CN(C)CC(O)CN(C)C`, the TEAD-luciferase reporter activity (compound concentration: 200 nM) is inactive: 2.87, the TEAD-luciferase reporter activity (compound concentration: 2 uM) was inactive: -0.319 and the TEAD-luciferase reporter activity (compound concentration: 10 uM) is inactive: 0.0832.

On to `CN(C)c1ccc2nc3ccc(=[N+](C)C)cc-3sc2c1` [methylthioninium chloride], for which, for the setting “compound concentration: 2 uM”, the TEAD-luciferase reporter activity was inactive: -0.583.

For `CN(C)c1ccc2nc3ccc(=[N+](C)C)cc-3sc2c1` [Methylene Blue trihydrate], the TEAD-luciferase reporter activity (compound concentration: 200 nM) was inactive: 0.0961 and the TEAD-luciferase reporter activity (compound concentration: 10 uM) was inactive: -1.04.

As for `COC(=O)C1=C(C)NC(C)=C(C(=O)OC(C)C)C1c1cccc2nonc12` (stereo not given) [isradipine], the TEAD-luciferase reporter activity by setting is: (compound concentration: 200 nM) inactive: -0.41; (compound concentration: 2 uM) inactive: -0.893; (compound concentration: 10 uM) inactive: -0.419.

Turning to `CCN(CC)CCNC(=O)c1cc(S(C)(=O)=O)ccc1OC` [tiapride], the TEAD-luciferase reporter activity was inactive: -2.7 (compound concentration: 200 nM), inactive: -1.27 (compound concentration: 2 uM) and inactive: 2.74 (compound concentration: 10 uM).

Turning to `C1CC1CN1CCN(CC2CC2)CC1`, the TEAD-luciferase reporter activity runs as follows: (compound concentration: 200 nM) inactive: 1.33; (compound concentration: 2 uM) inactive: 0.221; (compound concentration: 10 uM) inactive: 0.416.

With `OC(COc1ccc(F)cc1)CN1CCN(c2nc3ccc(Cl)cc3s2)CC1` (stereo not given), the TEAD-luciferase reporter activity reads like this: (compound concentration: 200 nM) inactive: -1.07; (compound concentration: 2 uM) inactive: -0.331; (compound concentration: 10 uM) inactive: -0.0927.
